# Some of these results come from one statement about several compounds together. Some ranges recur; such a range may be that of the whole group of compounds.
# System: IDDM associated autoantibodies in sera
# Assay: ELISA of sera on plate-bound human GAD65 peptides
# Assay type: binding
# Conditions: none of the control sera
# Experimental: Patient sera and most control sera were those used in a previous study (Kaufman, et al., J. Clin. Investigation, supra) All samples were coded and tested in a blind manner. Peptides were synthesized using an automatic instrument (Applied Biosystems, Foster City, Calif.) and standard conditions. Peptides were dissolved in 60 mM sodium bicarbonate buffer (pH 9.6) at 20 ug/ml and 100 ul of each was added to duplicated wells of a 96 well Nunc-Immuno Plate. Peptides were allowed to bind at 4° C. overnight. The plates were then washed three times with PBS+0.1% Tween 20 (wash buffer), after which the plates were pre-absorbed with 3% BSA in sodium bicarbonate buffer for 0.5 hours at 37° C., or at room temperature overnight. The plates were then washed 5 times with the above wash buffer. 100 ul of serum at a 1/300 dilution in PBS+0.1% Tween 20 and 1% BSA was added to each well and antibodies were allowed to bind for 1 hour at 37° C. The plates were washed 5 times with wash buffer. 100 ul of a 1/600 dilution of HRP-goat anti-human IgG (BRL, Gaithersberg, Md.) was added to each well and allowed to bind for 1 hour at 37° C. The plates were then washed 7 times and 100 ul of substrate buffer was added to each well for 30 minutes at room temperature. The color development was measured at 410 nm using an ELISA plate reader (ICN, Biomedicals, Costa Mesa, Calif.). Positive sera were defined as: OD410 of the sample/negative control ≧3.0.
row,Sequence,share of patients whose sera recognized the peptide
1,QKFTGGIGIGNKLCALLYGD [Peptide 3],25-37%
2,GLLMSRKHKLSGVERANS [Peptide 25],25-37%
3,VNFFRMVISNPAATHQDIDF [Peptide 37],25-37%
4,KPCSCSKVDVNYAFLHATDL [Peptide 6],25-37%
5,LEAKQKGFVPFLVSATAGTT [Peptide 22],25-37%
